In US6602487B1, “Methods and tests for producing and for inhibiting coronary artery vasospasms” (Dimera Incorporated, priority 1997, dated 2003):
“And” between values parts separate entries of the source, which are not always exact repeats. Identical values can stand only once. Further values from the same series stand in other lists.

Assay: Progesterone serum levels after topical ProGest cream in menopausal or postmenopausal women
Assay type: in vivo, human
Conditions: topical ProGest cream 2 ml, per patient
Experimental: An open label, controlled study was carried out in six healthy menopausal or postmenopausal women using no over-the-counter or prescription medications, medical foods or dietary supplements which would influence progesterone levels. Menopausal or postmenopausal status was determined by clinical methods. The inclusion criteria were low estrogen levels (less than or equal to 25 picograms per ml); non-use of progesterone for two weeks prior to the beginning of the study, and four weeks if medroxyprogesterone acetate was used; a body mass index less than 30; age between 40 and 65; non-smoker; at least six months after menopause (last bleeding); normal mammogram and pap smear within the past year; and reasonable reliability and client compliance. […] The cream was to be applied in 2 ml amounts on calendar days 2-15 at 8 a.m. Applications were increased to a second 2 ml application at 8 p.m. on calendar days 16-30. In addition, estrogen was applied as a […] patch. The patch used was Vivelle®, Ciba (now Novartis), Summit, N.J. The Vivelle® patch (0.05 mg/day) was applied on calendar days 0, 3, 7, 10, 14, 17, 21, 24 and 28.
Estrogen and progesterone serum levels were determined by chemiluminescence and were conducted on calendar days 2, 9, 16, 23, and 30 at times indicated.

## CC(=O)[C@H]1CC[C@H]2[C@@H]3CCC4=CC(=O)CC[C@]4(C)[C@H]3CC[C@]12C [P, progesterone]
Week 0, 1/2 H
  Progesterone Levels: 0.69 Nanograms/ml and 0.47 Nanograms/ml and 0.41 Nanograms/ml and 1.11 Nanograms/ml and 1.5 Nanograms/ml
Week 0, 1 H
  Progesterone Levels: 0.59 Nanograms/ml and 0.52 Nanograms/ml and 0.53 Nanograms/ml and 1 Nanograms/ml and 1.4 Nanograms/ml
Week 0, 2 H
  Progesterone Levels: 0.71 Nanograms/ml and 0.68 Nanograms/ml and 0.61 Nanograms/ml and 1.3 Nanograms/ml and 3.1 Nanograms/ml
Week 0, 3 H
  Progesterone Levels: 2.1 Nanograms/ml and 0.84 Nanograms/ml and 0.57 Nanograms/ml and 1.3 Nanograms/ml and 5.6 Nanograms/ml
Week 0, 4 H
  Progesterone Levels: 0.46 Nanograms/ml and 0.75 Nanograms/ml and 0.92 Nanograms/ml and 1.2 Nanograms/ml and 3.8 Nanograms/ml
Week 0, 6 H
  Progesterone Levels: 0.61 Nanograms/ml and 2.9 Nanograms/ml and 1 Nanograms/ml and 1.3 Nanograms/ml and 1.8 Nanograms/ml
Week 0, 12 H
  Progesterone Levels: 0.8 Nanograms/ml and 1.7 Nanograms/ml and 1.3 Nanograms/ml and 2.2 Nanograms/ml
Week 2, 24 H
  Progesterone Levels: 1.5 Nanograms/ml
Week 3, 0 H
  Progesterone Levels: 0.91 Nanograms/ml and 1.5 Nanograms/ml and 1.7 Nanograms/ml and 2.2 Nanograms/ml and 2.6 Nanograms/ml and 2.4 Nanograms/ml
Week 3, 1 H
  Progesterone Levels: 0.79 Nanograms/ml and 0.78 Nanograms/ml and 1.2 Nanograms/ml and 2.1 Nanograms/ml and 6.9 Nanograms/ml and 1.6 Nanograms/ml
Week 3, 2 H
  Progesterone Levels: 0.74 Nanograms/ml and 2.1 Nanograms/ml and 2 Nanograms/ml (2×) and 1.6 Nanograms/ml and 7.1 Nanograms/ml
Week 3, 4 H
  Progesterone Levels: 1.5 Nanograms/ml and 5.6 Nanograms/ml and 1.4 Nanograms/ml and 1.6 Nanograms/ml (2×) and 6.1 Nanograms/ml
Week 3, 6 H
  Progesterone Levels: 0.95 Nanograms/ml and 3.7 Nanograms/ml and 1.1 Nanograms/ml and 2.4 Nanograms/ml and 3 Nanograms/ml and 3.8 Nanograms/ml
Week 3, 8 H
  Progesterone Levels: 0.73 Nanograms/ml and 4.1 Nanograms/ml and 1.1 Nanograms/ml and 1.7 Nanograms/ml and 3.8 Nanograms/ml and 2.1 Nanograms/ml
Week 3, 12 H
  Progesterone Levels: 0.63 Nanograms/ml and 1.2 Nanograms/ml and 1.5 Nanograms/ml and 2.1 Nanograms/ml and 1.8 Nanograms/ml and 2.7 Nanograms/ml
Week 3, 24 H
  Progesterone Levels: 0.47 Nanograms/ml and 1.3 Nanograms/ml and 1 Nanograms/ml and 1.7 Nanograms/ml and 4.4 Nanograms/ml and 4.5 Nanograms/ml
Week 4, 0 H
  Progesterone Levels: 0.78 Nanograms/ml and 2 Nanograms/ml and 2.2 Nanograms/ml and 2.1 Nanograms/ml (2×) and 1.9 Nanograms/ml
Week 4, 1 H
  Progesterone Levels: 4.6 Nanograms/ml and 1.3 Nanograms/ml and 1.5 Nanograms/ml (2×) and 3.5 Nanograms/ml and 2.8 Nanograms/ml
Week 4, 2 H
  Progesterone Levels: 1.2 Nanograms/ml and 2.7 Nanograms/ml and 2.2 Nanograms/ml and 1.5 Nanograms/ml and 2 Nanograms/ml and 4.2 Nanograms/ml
Week 4, 4 H
  Progesterone Levels: 0.97 Nanograms/ml and 4.5 Nanograms/ml and 3 Nanograms/ml and 1.8 Nanograms/ml and 4 Nanograms/ml and 3.1 Nanograms/ml
Week 4, 6 H
  Progesterone Levels: 1.1 Nanograms/ml and 2.7 Nanograms/ml (2×) and 1.5 Nanograms/ml and 2.4 Nanograms/ml
Week 4, 8 H
  Progesterone Levels: 1.5 Nanograms/ml and 1.3 Nanograms/ml and 1.1 Nanograms/ml and 2.7 Nanograms/ml and 3.8 Nanograms/ml and 3.7 Nanograms/ml
Week 4, 12 H
  Progesterone Levels: 1.3 Nanograms/ml and 3.4 Nanograms/ml and 1.7 Nanograms/ml and 2.1 Nanograms/ml (2×) and 2.8 Nanograms/ml
Week 4, 24 H
  Progesterone Levels: 1.6 Nanograms/ml and 2.4 Nanograms/ml and 1.4 Nanograms/ml and 2 Nanograms/ml and 5.9 Nanograms/ml and 2.3 Nanograms/ml
